This is one part of the list. Most entries show no effect beyond the scatter of the controls.
Compound: CN[C@@H]1C[C@H]2O[C@@](C)([C@@H]1OC)n1c3ccccc3c3c4c(c5c6ccccc6n2c5c31)C(=O)NC4 [staurosporine]
Test: log2 fold change of pooled soluble protein (PISA), ligand vs vehicle (log2 ratio); higher = more thermally stabilized
Conditions: ligand concentration: 20 uM; assay format: PISA pool 52.9/55.5/58.6 C

The chains behind the UniProt entries cited, without tags or fusion partners. Where a name states a change or a piece, a line headed by the entry shows the natural chain unless it says otherwise.
UniProt O35386: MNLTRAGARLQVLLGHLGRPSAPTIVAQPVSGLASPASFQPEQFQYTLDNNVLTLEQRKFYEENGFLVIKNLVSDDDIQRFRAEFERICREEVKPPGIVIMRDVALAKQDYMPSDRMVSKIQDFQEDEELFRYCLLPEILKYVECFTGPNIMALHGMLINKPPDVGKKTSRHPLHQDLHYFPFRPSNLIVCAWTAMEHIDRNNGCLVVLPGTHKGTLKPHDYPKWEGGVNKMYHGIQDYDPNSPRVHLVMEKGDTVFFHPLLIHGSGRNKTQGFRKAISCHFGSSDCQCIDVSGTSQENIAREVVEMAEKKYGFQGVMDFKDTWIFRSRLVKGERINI
UniProt O88685, whole entry: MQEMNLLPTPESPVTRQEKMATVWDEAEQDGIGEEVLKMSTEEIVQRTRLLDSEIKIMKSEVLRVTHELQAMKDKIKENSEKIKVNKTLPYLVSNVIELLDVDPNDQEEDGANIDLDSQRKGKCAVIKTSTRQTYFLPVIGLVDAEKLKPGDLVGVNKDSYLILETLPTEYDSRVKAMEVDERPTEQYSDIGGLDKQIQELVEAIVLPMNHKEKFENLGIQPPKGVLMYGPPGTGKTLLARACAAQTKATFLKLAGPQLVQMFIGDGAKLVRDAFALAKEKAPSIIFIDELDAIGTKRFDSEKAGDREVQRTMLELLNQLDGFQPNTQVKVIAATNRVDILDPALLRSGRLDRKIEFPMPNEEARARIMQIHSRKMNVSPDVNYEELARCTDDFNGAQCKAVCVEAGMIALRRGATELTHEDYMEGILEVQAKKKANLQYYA
UniProt O55125: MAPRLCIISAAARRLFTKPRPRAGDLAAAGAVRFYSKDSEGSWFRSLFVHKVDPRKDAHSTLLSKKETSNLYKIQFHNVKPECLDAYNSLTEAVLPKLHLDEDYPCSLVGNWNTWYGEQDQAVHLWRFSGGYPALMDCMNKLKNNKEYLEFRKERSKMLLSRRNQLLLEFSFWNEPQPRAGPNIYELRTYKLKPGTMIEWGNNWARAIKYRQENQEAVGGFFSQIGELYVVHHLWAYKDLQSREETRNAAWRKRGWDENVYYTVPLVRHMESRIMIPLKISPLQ
UniProt O88958: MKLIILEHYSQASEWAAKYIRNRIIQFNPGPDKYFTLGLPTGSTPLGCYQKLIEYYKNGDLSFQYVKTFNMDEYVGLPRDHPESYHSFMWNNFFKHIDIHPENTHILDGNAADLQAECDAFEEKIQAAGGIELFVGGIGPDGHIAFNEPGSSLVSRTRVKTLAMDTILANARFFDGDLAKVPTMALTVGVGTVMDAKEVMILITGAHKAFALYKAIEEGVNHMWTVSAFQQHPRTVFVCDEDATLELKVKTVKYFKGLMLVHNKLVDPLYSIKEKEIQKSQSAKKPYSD
UniProt O70475: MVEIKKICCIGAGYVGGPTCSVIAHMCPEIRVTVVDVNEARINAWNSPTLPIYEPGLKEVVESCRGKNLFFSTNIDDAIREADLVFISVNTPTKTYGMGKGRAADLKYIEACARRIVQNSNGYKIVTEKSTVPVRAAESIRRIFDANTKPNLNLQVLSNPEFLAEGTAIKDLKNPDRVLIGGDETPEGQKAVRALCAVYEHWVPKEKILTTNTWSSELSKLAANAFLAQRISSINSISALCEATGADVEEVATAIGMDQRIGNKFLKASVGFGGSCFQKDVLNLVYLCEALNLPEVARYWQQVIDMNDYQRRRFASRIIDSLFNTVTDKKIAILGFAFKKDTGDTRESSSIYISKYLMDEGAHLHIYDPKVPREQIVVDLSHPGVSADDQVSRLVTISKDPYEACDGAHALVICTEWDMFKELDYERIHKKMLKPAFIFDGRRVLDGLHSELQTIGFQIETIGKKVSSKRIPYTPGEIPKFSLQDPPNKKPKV
UniProt O89023: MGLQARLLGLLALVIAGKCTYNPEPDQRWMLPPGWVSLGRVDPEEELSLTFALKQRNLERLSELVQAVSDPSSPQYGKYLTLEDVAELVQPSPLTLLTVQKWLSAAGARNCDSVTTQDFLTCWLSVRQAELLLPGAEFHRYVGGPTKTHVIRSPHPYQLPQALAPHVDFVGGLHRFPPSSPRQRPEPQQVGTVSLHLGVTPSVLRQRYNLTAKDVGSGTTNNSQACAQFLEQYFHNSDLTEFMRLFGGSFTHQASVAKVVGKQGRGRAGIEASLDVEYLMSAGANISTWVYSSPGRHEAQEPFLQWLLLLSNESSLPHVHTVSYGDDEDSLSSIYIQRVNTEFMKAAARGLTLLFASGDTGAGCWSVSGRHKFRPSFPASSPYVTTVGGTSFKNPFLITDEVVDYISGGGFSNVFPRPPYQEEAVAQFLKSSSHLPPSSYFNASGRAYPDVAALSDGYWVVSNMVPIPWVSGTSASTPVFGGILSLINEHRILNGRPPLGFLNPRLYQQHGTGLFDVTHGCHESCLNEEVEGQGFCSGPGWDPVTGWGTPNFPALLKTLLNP
UniProt O89053: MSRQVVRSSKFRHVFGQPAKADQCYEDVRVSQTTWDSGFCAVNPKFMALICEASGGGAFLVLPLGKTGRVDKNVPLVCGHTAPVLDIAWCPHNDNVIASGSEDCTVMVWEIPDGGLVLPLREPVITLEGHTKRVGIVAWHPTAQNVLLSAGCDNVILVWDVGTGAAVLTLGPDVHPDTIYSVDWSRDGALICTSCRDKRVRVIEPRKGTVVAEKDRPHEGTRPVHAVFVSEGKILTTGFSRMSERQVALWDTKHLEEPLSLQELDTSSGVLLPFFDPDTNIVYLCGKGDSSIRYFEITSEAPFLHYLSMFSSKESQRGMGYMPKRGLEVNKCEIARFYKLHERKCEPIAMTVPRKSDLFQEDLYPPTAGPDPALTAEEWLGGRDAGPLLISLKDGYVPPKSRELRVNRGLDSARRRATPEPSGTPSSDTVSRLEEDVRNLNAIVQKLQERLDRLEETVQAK
UniProt O88569: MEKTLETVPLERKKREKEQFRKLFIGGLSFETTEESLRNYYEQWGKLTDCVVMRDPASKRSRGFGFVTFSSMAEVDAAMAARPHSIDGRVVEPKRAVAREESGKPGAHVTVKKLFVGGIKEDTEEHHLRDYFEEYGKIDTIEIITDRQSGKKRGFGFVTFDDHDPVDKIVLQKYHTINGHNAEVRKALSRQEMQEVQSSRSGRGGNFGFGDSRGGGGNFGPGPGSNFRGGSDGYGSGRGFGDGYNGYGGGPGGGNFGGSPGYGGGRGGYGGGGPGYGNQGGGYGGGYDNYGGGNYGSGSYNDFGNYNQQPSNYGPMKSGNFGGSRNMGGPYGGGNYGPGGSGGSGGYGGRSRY
UniProt O35215: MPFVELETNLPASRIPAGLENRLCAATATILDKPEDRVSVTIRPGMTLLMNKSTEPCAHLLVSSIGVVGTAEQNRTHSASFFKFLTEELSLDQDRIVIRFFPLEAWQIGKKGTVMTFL
UniProt O88520: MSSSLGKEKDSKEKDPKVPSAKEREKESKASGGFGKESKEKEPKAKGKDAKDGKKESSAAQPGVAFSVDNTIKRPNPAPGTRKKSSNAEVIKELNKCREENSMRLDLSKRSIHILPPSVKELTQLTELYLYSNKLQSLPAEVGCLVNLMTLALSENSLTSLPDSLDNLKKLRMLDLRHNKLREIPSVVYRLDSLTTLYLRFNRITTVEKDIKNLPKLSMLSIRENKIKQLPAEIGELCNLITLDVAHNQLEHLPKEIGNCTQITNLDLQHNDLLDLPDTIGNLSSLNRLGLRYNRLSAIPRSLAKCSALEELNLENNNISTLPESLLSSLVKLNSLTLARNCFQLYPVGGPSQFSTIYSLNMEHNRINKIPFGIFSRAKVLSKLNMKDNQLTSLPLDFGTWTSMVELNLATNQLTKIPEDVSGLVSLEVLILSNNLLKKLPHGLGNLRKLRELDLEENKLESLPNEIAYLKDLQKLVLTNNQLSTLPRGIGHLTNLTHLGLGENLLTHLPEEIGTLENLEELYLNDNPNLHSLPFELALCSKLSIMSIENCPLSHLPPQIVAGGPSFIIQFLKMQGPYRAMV
UniProt O70435: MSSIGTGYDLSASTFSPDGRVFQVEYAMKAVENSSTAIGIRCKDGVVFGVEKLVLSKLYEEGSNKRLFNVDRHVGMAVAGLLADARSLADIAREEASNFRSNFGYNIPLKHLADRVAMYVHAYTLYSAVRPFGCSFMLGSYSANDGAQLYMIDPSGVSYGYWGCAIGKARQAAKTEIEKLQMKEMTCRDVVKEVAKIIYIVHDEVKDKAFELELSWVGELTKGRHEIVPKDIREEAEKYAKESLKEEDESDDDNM
UniProt G5E8Q8: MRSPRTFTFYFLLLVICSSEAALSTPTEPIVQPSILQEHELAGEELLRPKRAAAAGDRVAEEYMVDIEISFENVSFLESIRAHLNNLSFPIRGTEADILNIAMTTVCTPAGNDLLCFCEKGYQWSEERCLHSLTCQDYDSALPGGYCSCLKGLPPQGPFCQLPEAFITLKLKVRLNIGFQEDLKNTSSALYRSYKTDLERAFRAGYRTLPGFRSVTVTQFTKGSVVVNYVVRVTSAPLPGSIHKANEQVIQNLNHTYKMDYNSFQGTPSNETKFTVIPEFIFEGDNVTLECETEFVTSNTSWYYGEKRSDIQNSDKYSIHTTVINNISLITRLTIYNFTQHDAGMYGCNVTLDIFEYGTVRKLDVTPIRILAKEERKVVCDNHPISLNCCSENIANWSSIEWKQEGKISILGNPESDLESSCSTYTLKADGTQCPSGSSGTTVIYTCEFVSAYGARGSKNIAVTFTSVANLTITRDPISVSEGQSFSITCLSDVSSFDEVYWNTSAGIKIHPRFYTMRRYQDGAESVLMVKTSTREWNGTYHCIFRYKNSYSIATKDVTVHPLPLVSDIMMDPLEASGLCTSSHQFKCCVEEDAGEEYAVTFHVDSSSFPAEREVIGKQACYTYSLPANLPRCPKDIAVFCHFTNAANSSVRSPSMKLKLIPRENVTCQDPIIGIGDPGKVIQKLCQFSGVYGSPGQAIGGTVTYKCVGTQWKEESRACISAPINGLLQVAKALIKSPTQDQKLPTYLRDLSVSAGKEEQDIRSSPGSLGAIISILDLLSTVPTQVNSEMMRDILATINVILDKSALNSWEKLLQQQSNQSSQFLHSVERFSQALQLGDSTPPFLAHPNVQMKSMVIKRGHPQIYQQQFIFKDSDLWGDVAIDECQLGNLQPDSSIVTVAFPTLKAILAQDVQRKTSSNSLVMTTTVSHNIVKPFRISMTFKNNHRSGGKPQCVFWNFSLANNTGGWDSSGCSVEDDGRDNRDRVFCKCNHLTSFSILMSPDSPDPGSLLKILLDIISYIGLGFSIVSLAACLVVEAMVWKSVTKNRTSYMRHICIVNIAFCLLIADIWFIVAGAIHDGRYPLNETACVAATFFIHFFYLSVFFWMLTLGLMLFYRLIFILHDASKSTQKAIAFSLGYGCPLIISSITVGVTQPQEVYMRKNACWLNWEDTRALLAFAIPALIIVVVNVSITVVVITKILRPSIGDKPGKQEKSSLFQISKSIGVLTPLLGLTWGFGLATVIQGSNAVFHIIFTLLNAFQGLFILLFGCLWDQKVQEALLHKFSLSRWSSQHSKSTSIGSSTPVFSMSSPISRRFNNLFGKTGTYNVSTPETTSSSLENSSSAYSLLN
UniProt O88456: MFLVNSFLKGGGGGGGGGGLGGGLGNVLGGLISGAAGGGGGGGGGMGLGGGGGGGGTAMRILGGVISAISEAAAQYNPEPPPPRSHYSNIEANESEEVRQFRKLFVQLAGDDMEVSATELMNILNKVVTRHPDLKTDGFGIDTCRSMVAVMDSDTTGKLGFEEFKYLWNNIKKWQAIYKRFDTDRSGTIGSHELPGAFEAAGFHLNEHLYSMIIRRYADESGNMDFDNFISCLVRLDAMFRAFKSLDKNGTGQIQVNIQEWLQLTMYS
UniProt O35664: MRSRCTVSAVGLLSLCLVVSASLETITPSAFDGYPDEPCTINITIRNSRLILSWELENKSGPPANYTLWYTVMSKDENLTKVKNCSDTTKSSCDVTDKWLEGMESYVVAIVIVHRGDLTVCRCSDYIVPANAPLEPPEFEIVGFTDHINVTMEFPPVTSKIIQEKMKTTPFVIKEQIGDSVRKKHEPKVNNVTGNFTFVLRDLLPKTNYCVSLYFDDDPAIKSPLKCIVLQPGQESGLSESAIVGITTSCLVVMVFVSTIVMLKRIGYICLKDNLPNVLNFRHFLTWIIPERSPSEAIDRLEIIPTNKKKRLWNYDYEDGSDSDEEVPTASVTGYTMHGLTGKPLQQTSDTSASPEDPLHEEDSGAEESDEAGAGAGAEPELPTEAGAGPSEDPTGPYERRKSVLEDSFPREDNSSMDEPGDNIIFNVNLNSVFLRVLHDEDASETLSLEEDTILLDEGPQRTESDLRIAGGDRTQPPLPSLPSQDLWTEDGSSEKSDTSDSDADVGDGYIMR
UniProt O88425: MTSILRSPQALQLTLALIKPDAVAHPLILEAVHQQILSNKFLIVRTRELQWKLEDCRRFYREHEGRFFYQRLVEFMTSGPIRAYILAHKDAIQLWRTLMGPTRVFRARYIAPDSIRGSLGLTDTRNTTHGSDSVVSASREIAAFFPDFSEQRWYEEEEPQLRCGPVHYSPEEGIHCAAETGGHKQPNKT

Row | Target | log2 fold change of pooled soluble protein
1 | UniProt O88851 | 0.0115
2 | UniProt O35386 | 0.115
3 | UniProt O55239 | 0.328
4 | UniProt O35343 | -0.154
5 | UniProt O35945 | -0.00312
6 | UniProt O88685 | -0.0665
7 | UniProt O55125 | 0.633
8 | UniProt O88811 | 0.0578
9 | UniProt O88958 | 0.0519
10 | UniProt O35632 | 0.0984
11 | UniProt O70475 | -0.0451
12 | UniProt O35435 | -0.199
13 | UniProt O89023 | -0.205
14 | UniProt O89053 | -0.0541
15 | UniProt O09174 | 0.173
16 | UniProt O88569 | 0.00944
17 | UniProt O08759 | 0.0306
18 | P01806;P01807;P01808;P01809;P01812 | 0.102

From entry 8 to 18, as listed above:
Row | Target | log2 fold change of pooled soluble protein
8 | UniProt O88811 | 0.0578
9 | UniProt O88958 | 0.0519
10 | UniProt O35632 | 0.0984
11 | UniProt O70475 | -0.0451
12 | UniProt O35435 | -0.199
13 | UniProt O89023 | -0.205
14 | UniProt O89053 | -0.0541
15 | UniProt O09174 | 0.173
16 | UniProt O88569 | 0.00944
17 | UniProt O08759 | 0.0306
18 | P01806;P01807;P01808;P01809;P01812 | 0.102

More results:

Row | Target | log2 fold change of pooled soluble protein
19 | UniProt O35448 | 0.0323
20 | UniProt O89026 | 0.152
21 | UniProt O55029 | -0.01
22 | UniProt O54754 | -0.056
23 | UniProt O55143 | 0.116
24 | UniProt O08795 | 0.1
25 | UniProt O35215 | -0.671
26 | UniProt O88520 | -0.00787
27 | UniProt O88342 | 0.0171
28 | UniProt O54983 | 0.0672
29 | UniProt O70435 | -0.0112
30 | UniProt G5E8Q8 | 0.194
31 | UniProt O08579 | -0.0112
32 | UniProt O88456 | 0.0164
33 | UniProt O08810 | 0.031
34 | UniProt O35664 | 0.231
35 | UniProt O88425 | 0.0231
36 | UniProt O55201 | 0.224
